Assay results: paper PMC13324726
These are yes or no findings as the source states them, for the method shown. Binding seen in cells or lysates may run through a third protein. These calls come from enrichment with a bait or labelling near it, and not all partners need be listed.

Protein sequences, listed by entry. Tags and fused reporters are not part of them.
UniProt P55258: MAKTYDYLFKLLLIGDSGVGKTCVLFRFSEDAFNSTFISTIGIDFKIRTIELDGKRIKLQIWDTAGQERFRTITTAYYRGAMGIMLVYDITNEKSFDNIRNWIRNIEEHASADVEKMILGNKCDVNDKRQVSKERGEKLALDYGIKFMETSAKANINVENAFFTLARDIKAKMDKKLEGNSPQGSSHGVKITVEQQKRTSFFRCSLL
UniProt Q3TN34: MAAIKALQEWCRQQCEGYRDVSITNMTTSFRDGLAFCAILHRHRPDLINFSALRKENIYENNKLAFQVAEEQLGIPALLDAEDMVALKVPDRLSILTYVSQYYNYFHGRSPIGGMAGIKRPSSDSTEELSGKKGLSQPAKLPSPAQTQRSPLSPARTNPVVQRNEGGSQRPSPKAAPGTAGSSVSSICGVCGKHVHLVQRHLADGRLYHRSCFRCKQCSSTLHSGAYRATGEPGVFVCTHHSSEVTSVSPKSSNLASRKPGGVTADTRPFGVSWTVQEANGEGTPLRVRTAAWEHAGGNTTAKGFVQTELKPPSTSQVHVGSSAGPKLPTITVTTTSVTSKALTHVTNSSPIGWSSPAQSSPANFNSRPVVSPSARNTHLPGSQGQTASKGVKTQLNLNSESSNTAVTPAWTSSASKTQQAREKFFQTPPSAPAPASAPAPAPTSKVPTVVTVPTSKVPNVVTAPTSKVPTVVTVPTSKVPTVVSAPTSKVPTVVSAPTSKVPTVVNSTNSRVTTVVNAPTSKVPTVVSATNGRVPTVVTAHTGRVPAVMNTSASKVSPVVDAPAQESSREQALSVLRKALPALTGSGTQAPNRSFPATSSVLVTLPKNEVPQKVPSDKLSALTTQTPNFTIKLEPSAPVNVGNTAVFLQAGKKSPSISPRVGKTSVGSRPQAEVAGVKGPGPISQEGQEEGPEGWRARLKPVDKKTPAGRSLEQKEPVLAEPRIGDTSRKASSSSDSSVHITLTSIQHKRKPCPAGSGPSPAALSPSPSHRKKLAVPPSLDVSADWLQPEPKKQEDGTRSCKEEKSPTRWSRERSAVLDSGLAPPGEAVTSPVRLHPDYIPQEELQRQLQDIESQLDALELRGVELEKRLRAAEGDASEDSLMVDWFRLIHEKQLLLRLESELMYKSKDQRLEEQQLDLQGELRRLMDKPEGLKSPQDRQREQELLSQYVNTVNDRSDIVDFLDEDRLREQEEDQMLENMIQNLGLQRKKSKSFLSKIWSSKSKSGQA

Target: RAB8A, endogenous in BV2 cells (mouse (endogenous in BV2)) (UniProt P55258)
Experiment: affinity purification with mass spectrometry; WT and dKO BV2 cells treated with 1 mM LLOMe 30 min, Dounce homogenised; lysates incubated with anti-RAB8A antibody and Protein A/G beads; washed in 20 mM Tris-HCl pH 7.4, 150 mM NaCl, 0.5% NP-40

binding: binds
Substance: MICALL2, endogenous in BV2 cells (from UniProt Q3TN34 1-1009)
